The text below walks through data of PMC6445123 (Scientific Reports, 2019).

For part of its entries the source gives two or more results. Only these are listed. The source may hold further records. Results that share an entry differ, and nothing given here explains why; some may be repeats, others may stem from another dose, organism or construct than stated.

The target in this assay is active Casp6 (Casp6-WT) (Homo sapiens, UniProt P55212, INS179NQTEKLDTNITEVD). Briefly: Casp6-C163A cleavage assay (prodomain cleavage of catalytically inactive Casp6-C163A by active Casp6). Conditions: rate of Casp6-C163A prodomain cleavage vs DMSO control. The protocol:
To assess the potency of in silico hits, a fluorescence-based Ac-VEID-AFC cleavage assay was used to measure recombinant active Casp6 reaction rate in the absence or presence of 100 µM concentration of compounds. A 30% inhibition cut off was arbitrarily chosen for further investigation of putative inhibitors. […] AFC signal interference by compound intrinsic fluorescence was ruled out (Fig. S4). Casp6 inhibition was confirmed for seven compounds (C7, C13, C14, S2, S10, S11 and S13) using a colorimetric Ac-VEID-pNA cleavage assay (Table 2, Fig. S3). […] The hits had IC50 values ranging from 13.2 µM to 289 µM (Table 2).
In fluorescence-based Casp6 activity assay, 10 µM Ac-VEID-AFC was added to 20 nM Casp6 in SB with 100 μM compound and 1% dimethyl sulfoxide (DMSO), and reaction rate was measured for 20 min at 37 °C as above. […] In colorimetric Casp6 activity assay, 200 µM Ac-VEID-pNA (N-acetyl-Val-Glu-Ile-Asp-p-nitroanilide, Enzo Life Sciences) was added to 200 nM Casp6 in SB with 100 μM compound, and Ac-VEID-pNA cleavage rate was measured at 37 °C for 30 min in clear 96-well plate (Sartstedt, Nümbrecht, Germany) using Synergy H4 plate reader at 405 nm. Absorbance was converted to the released pNA amount based on a standard curve of 0–250 µM pNA. Cleavage rates were calculated from the linear assay phase and were normalised to 1% DMSO control. […]

With `O=C(CCN1C(=O)C(=Cc2ccccc2Cl)SC1=S)NC12CC3CC(CC(C3)C1)C2`, the “% Inhibition with 100 µM compound (Casp6-C163A cleavage assay)” value was “minimal inhibition and 6.3 ± 5.1%”.
